# Reference: patent US20150176059
# The exact form of at least one protein or probe is not confirmed.
# Tested on: Z05-D DNA polymerase
# Assay: inhibition of the protein
# Conditions: primer extension on M13, 20 nM Z05-D, 0-2000 nM aptamer, 2.5 mM MgCl2, values in figures only, purified recombinant protein, single-stranded DNA
sequence,measurement,setting,value
CGATCATCTCAGAACATTCTTAGCGTTTTGTTCTTGTGTATGATCG [U0 (NTQ21-46A)],functional effect of the aptamer,,active
CGATCATCTCAGAACATTCTTAGCGTTTUGUUCUUGTGTATGATCG [U2],functional effect of the aptamer,"dU replacing dT at positions shown as u (medium dU content), inhibition reduced by UNG, variant of U0 (NTQ21-46A)",active
CGAUCAUCTCAGAACATTCTTAGCGTTTTGTTCTTGTGTAUGAUCG [U1],functional effect of the aptamer,"dU replacing dT at positions shown as u (low dU content), inhibition reduced by UNG, variant of U0 (NTQ21-46A)",active
CGAUCAUCTCAGAACATTCTTAGCGTTTUGUUCUUGTGTAUGAUCG [U3],functional effect of the aptamer,"dU replacing dT at positions shown as u (high dU content), inhibition drastically reduced by UNG, variant of U0 (NTQ21-46A)",active
